Some peptides are written in HELM: one residue between dots, names in brackets for other building blocks, links after the first $.
Assay: general procedure: Fmoc solid-phase peptide synthesis; Rink Amide AM resin (0.64 mmol/g) for C-terminal amides; preloaded Wang resin (0.50 mmol/g) for C-terminal acids; HBTU/NMM; PyBOP/DIEA or HBTU/DIEA for linker and chelator; DIC/Oxyma for Compoun
Conditions: whole synthesis, analytical RP-HPLC, UV 214 nm trace, scale of the general procedure approximately 30 μmol

Substance | final HPLC purity [%]
H2N-L-R-E-L-H-L-N—N—N—K(DOTA-NH—(CH2CH2O)2—CH2—C(O))—NH2 | 95.1
DOTA-NH—(CH2CH2O)2—CH2—C(O)-L-R-E-L-H—V-N—N—N—OH | 98.7
DOTA-NH—(CH2CH2O)3—CH2—C(O)-L-R-E-L-H-L-N—N—N—OH | 98.7
PEPTIDE1{[DOTA].[O2Oc].L.R.E.L.H.L.N.A.N}$$$$V2.0 | 98.1
PEPTIDE1{[DOTA].[O2Oc].L.R.E.L.H.L.N.A.N.[am]}$$$$V2.0 | 100
NOTA-NH—(CH2CH2O)2-CH2—C(O)-LRELHLNNN—OH | 95
DOTA-L-R-E-L-H-L-N—N—N—OH | 99.3
PEPTIDE1{[DOTA].[O2Oc].L.R.E.L.H.L.N.N.N.[am]}$$$$V2.0 | 99.1
PEPTIDE1{[DOTA].[O2Oc].L.R.E.L.H.L.N.N.N}$$$$V2.0 | 95
DOTA-NH—(CH2CH2O)2—CH2—C(O)-L-R-E-L-H-L-N—N-n-OH | 89.3
